# Earlier results as cited in patent US20260272868A1 (priority 2022, published 2026).
# The chains behind the UniProt entries cited, without tags or fusion partners.
# UniProt P28223, whole entry: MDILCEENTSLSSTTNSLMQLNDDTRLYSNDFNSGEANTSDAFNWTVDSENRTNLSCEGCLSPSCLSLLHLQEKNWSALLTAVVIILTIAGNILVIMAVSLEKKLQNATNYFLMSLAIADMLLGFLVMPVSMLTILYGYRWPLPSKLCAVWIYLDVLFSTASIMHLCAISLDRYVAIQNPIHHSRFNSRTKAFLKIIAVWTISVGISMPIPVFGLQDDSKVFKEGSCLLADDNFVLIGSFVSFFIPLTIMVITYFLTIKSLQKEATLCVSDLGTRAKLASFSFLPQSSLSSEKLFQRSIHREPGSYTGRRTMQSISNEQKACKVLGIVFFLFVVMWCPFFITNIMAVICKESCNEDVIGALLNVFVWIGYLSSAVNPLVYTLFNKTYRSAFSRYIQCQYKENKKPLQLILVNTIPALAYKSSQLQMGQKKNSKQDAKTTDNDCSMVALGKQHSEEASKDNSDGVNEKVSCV
# For at least one compound, name, drawing or mass did not settle the structure.
# Assays:
# [1] = target: T1, 5-HT2A receptor (Homo sapiens, UniProt P28223); design: (~mg per ~70 kg human, route); host or cells: human subjects (in vivo doses); settings: oral; cited from earlier work
# [2] = target: T1, 5-HT2A receptor; design: reported to be necessary to induce intense psychedelic experiences after psilocybin administration in humans; host or cells: human subjects (in vivo occupancy); settings: after psilocybin administration in humans; cited from earlier work
smiles,measurement,setting,value
CN(C)CCc1c[nH]c2cccc(OP(=O)(O)O)c12 [psilocybin],Typical Fully Psychedelic Dose Range,[1],"15-25, oral ~mg per ~70 kg human"
same,5-HT2A receptor occupancy reported to be necessary to induce intense psychedelic experiences,[2],60-70%
